In patent US8445504B2, “Tricyclic pyrazolopyrimidine derivatives” (Daiichi Sankyo Company, Limited, priority 2009, dated 2013):
Some entries share one result that the patent states for a list of compounds.

test system: NCI-H1975 (human non-small cell lung cancer cell line); assay: In vivo antitumor activity test, NCI-H1975 subcutaneous transplant in nude mice; settings: male nude mouse, 15 mg/kg orally once a day Day 11 to Day 14, tumor weight on Day 17; significant (Dunnett)

Structure (SMILES)	tumor growth inhibitory activity (GI % = 100 − T/C (%))
CNC(=O)CC1=Cc2nn(Cc3ncc(C)c(OC)c3Cl)c3nc(N)nc(c23)SC1 [Compound 1, 2-{4-Amino-2-[(3-chloro-4-methoxy-5-methylpyridin-2-yl)methyl]-2,7-dihydro-6-thia-1,2,3,5-tetraazabenzo[cd]azulen-8-yl}-N-methylacetamide]	≥ 50%
CNC(=O)CC1=Cc2nn(Cc3ncc(F)c(OC)c3C)c3nc(N)nc(c23)SC1 [Compound 2, 2-{4-Amino-2-[(5-fluoro-4-methoxy-3-methylpyridin-2-yl)methyl]-2,7-dihydro-6-thia-1,2,3,5-tetraazabenzo-[cd]azulen-8-yl}-N-methylacetamide]	≥ 50%
CNC(=O)CC1=Cc2nn(Cc3ncc(C)c(OC)c3Br)c3nc(N)nc(c23)SC1 [Compound 3, 2-{4-Amino-2-[(3-bromo-4-methoxy-5-methylpyridin-2-yl)methyl]-2,7-dihydro-6-thia-1,2,3,5-tetraazabenzo[cd]azulen-8-yl}-N-methylacetamide]	≥ 50%
COc1c(C)cnc(Cn2nc3c4c(nc(N)nc42)SCC(CC(N)=O)=C3)c1Br [Compound 4, 2-{4-Amino-2-[(3-bromo-4-methoxy-5-methylpyridin-2-yl)methyl]-2,7-dihydro-6-thia-1,2,3,5-tetraazabenzo[cd]azulen-8-yl}acetamide mesilate]	≥ 50%
COc1c(C)cnc(Cn2nc3c4c(nc(N)nc42)SCC(CC(=O)NCCF)=C3)c1Cl [Compound 5, 2-{4-Amino-2-[(3-chloro-4-methoxy-5-methylpyridin-2-yl)methyl]-2,7-dihydro-6-thia-1,2,3,5-tetraazabenzo[cd]azulen-8-yl}-N-(2-fluoroethyl)acetamide]	≥ 50%
COc1ccnc(Cn2nc3c4c(nc(N)nc42)SCC(C(=O)NCC(F)F)=C3)c1Cl [Compound 6, 4-Amino-2-[(3-chloro-4-methoxypyridin-2-yl)methyl]-N-(2,2-difluoroethyl)-2,7-dihydro-6-thia-1,2,3,5-tetraazabenzo[cd]azulen-8-carboxamide]	≥ 50%
